No constants are given. Whether binding was seen depends on the method and setting. Some binding calls cover weakened binding; strength is not graded here.
B1: Calcium-dependent lipid-binding domain-containing protein (At1g70790; AT1), full length (protein, UniProt Q9S7J9 1-185)
chain: MEDKPLGILRVHVKRGINLAIRDATTSDPYVVITLANQKLKTRVINNNCNPVWNEQLTLSIKDVNDPIRLTVFDKDRFSGDDKMGDAEIDFRPFLEAHQMELDFQKLPNGCAIKRIRPGRTNCLAEESSITWSNGKIMQEMILRLKNVECGEVELMLEWTDGPGCKGLGREGSKKTPWMPTKRLD
B2: Putative protein phosphatase (At2g30020; AT2), full length (protein, UniProt O80871 1-396)
chain: MSCSVAVCNSPVFSPSSSLFCNKSSILSSPQESLSLTLSHRKPQTSSPSSPSTTVSSPKSPFRLRFQKPPSGFAPGPLSFGSESVSASSPPGGVLKRKRPTRLDIPIGVAGFVAPISSSAAVAATPREECREVEREGDGYSVYCKRGRREAMEDRFSAITNLHGDRKQAIFGVYDGHGGVKAAEFAAKNLDKNIVEEVVGKRDESEIAEAVKHGYLATDASFLKEEDVKGGSCCVTALVNEGNLVVSNAGDCRAVMSVGGVAKALSSDHRPSRDDERKRIETTGGYVDTFHGVWRIQGSLAVSRGIGDAQLKKWVIAEPETKISRIEHDHEFLILASDGLWDKVSNQEAVDIARPLCLGTEKPLLLAACKKLVDLSASRGSSDDISVMLIPLRQFI

Sequences of proteins named here, by UniProt entry; tags and fusion partners are left off. Residues count along the entry.
UniProt Q9FJL3, residues 2-578: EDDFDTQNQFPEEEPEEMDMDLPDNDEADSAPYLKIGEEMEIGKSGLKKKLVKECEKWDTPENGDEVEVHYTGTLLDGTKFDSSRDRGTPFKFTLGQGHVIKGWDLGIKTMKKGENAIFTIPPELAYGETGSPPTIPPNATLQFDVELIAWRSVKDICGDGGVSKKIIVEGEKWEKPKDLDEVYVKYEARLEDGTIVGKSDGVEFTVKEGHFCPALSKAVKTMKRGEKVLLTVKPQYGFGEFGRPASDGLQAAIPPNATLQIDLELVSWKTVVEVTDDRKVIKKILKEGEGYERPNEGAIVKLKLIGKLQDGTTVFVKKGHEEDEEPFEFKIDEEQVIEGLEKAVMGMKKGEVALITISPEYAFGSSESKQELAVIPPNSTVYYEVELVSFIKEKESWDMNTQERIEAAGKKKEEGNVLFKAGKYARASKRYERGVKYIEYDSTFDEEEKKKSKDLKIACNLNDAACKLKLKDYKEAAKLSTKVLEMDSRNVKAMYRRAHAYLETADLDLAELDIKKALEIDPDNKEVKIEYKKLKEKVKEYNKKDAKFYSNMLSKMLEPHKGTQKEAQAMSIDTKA

Molecular target: ROF2 immunophilin (AtFKBP65/ROF2) (A. thaliana) (UniProt Q9FJL3)
Assay: two-hybrid; cotransformation of pGADT7 with the full-length partner and pGBKT7 with the immunophilin into yeast AH109; transformants selected on DDO (SD/Leu/Trp), interaction validated on QDO (Ade/His/Leu/Trp); cultures from OD600 = 0.2 diluted to 10^-3

Row | Binder | binding
1 | B1 | binds
2 | B2 | binds

Reference: publication PMC6017422
